These are yes or no findings as the source states them, for the method shown. Binding seen in cells or lysates may run through a third protein. Binding can be weak; no strength is given. Where a sequence is shown, tags or fusion partners need not be part of it.
Molecular target: retinoid X receptor (RXR), endogenous (human (endogenous in HeLa))
Test: co-IP; endogenous RXR immunoprecipitated with RXR antibody (SC-774) on protein A/G magnetic beads (Pierce Crosslink Magnetic IP/Co-IP Kit) from 400 μg lysate of HeLa or HEK293 cells transfected with HA-VDR, 1 hour at room temperature; western blot with antibodies against HA or VDR; in the absence or presence of Vit D3

binding: binds
B1: HA-tagged VDR–wild type (vitamin D receptor) (protein, UniProt P11473 1-427)
chain: MEAMAASTSLPDPGDFDRNVPRICGVCGDRATGFHFNAMTCEGCKGFFRRSMKRKALFTCPFNGDCRITKDNRRHCQACRLKRCVDIGMMKEFILTDEEVQRKREMILKRKEEEALKDSLRPKLSEEQQRIIAILLDAHHKTYDPTYSDFCQFRPPVRVNDGGGSHPSRPNSRHTPSFSGDSSSSCSDHCITSSDMMDSSSFSNLDLSEEDSDDPSVTLELSQLSMLPHLADLVSYSIQKVIGFAKMIPGFRDLTSEDQIVLLKSSAIEVIMLRSNESFTMDDMSWTCGNQDYKYRVSDVTKAGHSLELIEPLIKFQVGLKKLNLHEEEHVLLMAICIVSPDRPGVQDAALIEAIQDRLSNTLQTYIRCRHPPPGSHLLYAKMIQKLADLRSLNEEHSKQYRCLSFQPECSMKLTPLVLEVFGNEIS

From article PMC5681508
